Where “and” joins values, the source holds several entries; their conditions need not be identical. Equal entries are not always repeated. Some of the results follow. Repeats in this data set agree poorly, so a single value says little.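 HEK293T cells were given each compound shortly before transfection with a reporter in which red mCherry is followed by the SARS-CoV-2 frameshift element and then GFP in the −1 frame, so GFP appears only after frameshifting.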
Tested on: HEK293T
Assay: percent viability (nuclei count) relative to control; higher = more viable cells
Conditions: 10 µM; 24 h

SMILES	percent viability
CCCCCCCCCCCC[N+](C)(C)CCOc1ccccc1 [domiphen]	126%
C[C@@H](O)[C@@H]1NC(=O)[C@H](CCCCN)NC(=O)[C@@H](Cc2c[nH]c3ccccc23)NC(=O)[C@H](Cc2ccccc2)NC(=O)[C@@H](NC(=O)[C@H](N)Cc2ccccc2)CSSC[C@@H](C(=O)N[C@H](CO)[C@@H](C)O)NC1=O [Octreotide]	193% and 344%
CC(C)NC(=N)NC(=N)Nc1ccc(Cl)cc1	349%

— the supplement of paper PMC8256030
